From PubChem BioAssay AID1439 (NMMLSC, 2008)
About 770 (0.35%) of roughly 220,000 compounds were called active. This list was built around the results that the source calls inconclusive (neither active nor inactive); the mix of calls is not that of the screen. Cut-off read from the data, not from the text of the source: active = binding response below about 49% or above about 150%; inconclusive = no clear call, values can overlap the other calls; inactive = in between.

By UniProt entry, the sequences of proteins in these tests, tags left out.
UniProt P09471, whole entry, looked up: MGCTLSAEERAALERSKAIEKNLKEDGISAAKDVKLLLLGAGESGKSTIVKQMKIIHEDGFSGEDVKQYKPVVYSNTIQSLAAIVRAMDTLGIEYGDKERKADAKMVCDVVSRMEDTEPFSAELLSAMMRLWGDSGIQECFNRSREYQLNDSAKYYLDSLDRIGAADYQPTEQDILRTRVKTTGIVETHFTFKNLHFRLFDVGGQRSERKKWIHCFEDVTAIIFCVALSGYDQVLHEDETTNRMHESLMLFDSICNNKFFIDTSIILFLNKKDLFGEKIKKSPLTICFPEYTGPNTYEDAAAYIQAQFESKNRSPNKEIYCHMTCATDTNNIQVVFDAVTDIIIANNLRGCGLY

These molecules were tested against Guanine nucleotide-binding protein G(o) subunit alpha (Homo sapiens) (UniProt P09471) (assay: RGS7-Galphao binding modulators, primary screen, biochemical, multiplexed bead flow cytometry (AID 1439;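 note: fluorescent Galphao held in activated GDP-AlF4 state binding bead-coupled RGS7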)). Settings: at 10 µM, actives lie on both sides.
With `Cc1ccnc(NS(=O)(=O)c2ccc(NC(=O)C34CC5CC(C)(CC(C)(C5)C3)C4)cc2)n1` the binding response (% of control) was inactive: 103%. With `O=C(NNc1cccc([N+](=O)[O-])c1)/C(=C\c1cccnc1)NC(=O)c1ccccc1` the binding response (% of control) was inconclusive: 172%. With `Cc1ccc2c(c1)C1CN(C)CCC1N2C(=O)c1ccc(Cl)c(S(=O)(=O)N2CCOCC2)c1` (centres undefined) the binding response (% of control) was inconclusive: 99.6%. `COC(=O)c1ccccc1NC(=O)CSc1ncccn1` was tested, and the binding response (% of control) was inconclusive: 294%. For `CCOc1ccc(CC(=O)NNC(=O)/C=C/C(=O)O)cc1`, the binding response (% of control) was inconclusive: 180%. `Cc1ccc(S(=O)(=O)c2c(N)n(CCCN(C)C)c3nc4ccccc4nc23)cc1` was tested, and the binding response (% of control) was inconclusive: 20.9%. With `CCCN(CCC)C(=O)CC(c1ccccc1)c1ccco1` (centres undefined) the binding response (% of control) was inconclusive: -10.8%. In the case of `CC(=O)NCC(=O)OCC(=O)c1ccc(Br)cc1`, the binding response (% of control) is reported as inactive: 95.6%. With `COc1ccc(C2/C=C\CN(S(=O)(=O)/C=C/c3ccccc3)[C@H](Cc3ccccc3)C(=O)N2Cc2ccc(F)cc2)cc1` (some centres undefined) the binding response (% of control) was inconclusive: 99.3%. For `OCCNC(=S)Nc1ccc(Oc2ccccc2)cc1`, the binding response (% of control) was inconclusive: 105%. In the case of `CC1CN(CC(O)COC(c2ccc(Cl)cc2)c2ccc(Cl)cc2)CC(C)O1` (centres undefined), the binding response (% of control) is reported as inactive: 98.3%. For `O=C(COc1cc(O)c2c(=O)c3ccccc3oc2c1)OCc1ccccc1`, the binding response (% of control) was inconclusive: 117%. With `CCOC(=O)c1cnc2c(cnn2C)c1Oc1ccc(OC)cc1` the binding response (% of control) was inconclusive: 104%. `CCC(=O)N1CCN(CCN=CC2=C(O)CC(C)(C)CC2=O)CC1` was tested, and the binding response (% of control) was inactive: 106%. In the case of `CN(Cc1ccccc1)c1ccc(C(CC(N)=O)NC(=O)Cc2ccc(Br)cc2)cc1[N+](=O)[O-]` (centres undefined), the binding response (% of control) is reported as inconclusive: 111%. `CCN(CC)S(=O)(=O)c1cccc(-c2nnc(SCC(=O)NC)n2CCc2ccccc2)c1` was tested, and the binding response (% of control) was active: 246% [activator]. `COc1ccc(S(=O)(=O)Nc2ccccc2C(=O)N2CCCC2)cc1OC` was tested, and the binding response (% of control) was inconclusive: 102%. For `CCC12CN3CCN(CC(C3)/C1=N\NC(=O)Nc1ccccc1)C2`, the binding response (% of control) was inactive: 105%. For `S=C(NC1CCCCCC1)NC1CCCC1`, the binding response (% of control) was inconclusive: 103%. In the case of `Cc1ccccc1NCc1nnc2n1CCCCC2`, the binding response (% of control) is reported as inconclusive: 80.7%. For `CCc1ccc2ncc(C(=O)c3ccccc3)c(N3CCOCC3)c2c1`, the binding response (% of control) was inconclusive: 117%. For `Cn1c(=O)c2c(ncn2CCC(=O)N/N=C/c2ccccc2)n(C)c1=O`, the binding response (% of control) was inconclusive: 58.6%. For `O=C(Cn1nnc(-c2ccc(F)cc2)n1)Nc1ccc2c(c1)OCCO2`, the binding response (% of control) was inconclusive: 90.3%. In the case of `CCOC(=O)C1(CCOC)CCN(C(=O)c2ccccc2-c2cccc(C)c2)CC1`, the binding response (% of control) is reported as inactive: 100%.
